Source: patent US9745335B2 (Blirt S.A., priority 2012, dated 2017)

Test system: Human erythrocytes
Experiment: hemotoxicity determination (hemolytic activity)
Format: cell-based
Details: for WS EH50/IC50 (selectivity coefficient): EH50 divided by antifungal IC50; for WE WS(z)/WS(AmB) (effectivity factor): selectivity coefficient of derivative relative to native antibiotic
Method: The hemotoxicity determination was carried out by the serial dilutions method, according to the procedure described earlier (Slisz, M., et al., E., J Antibiot 57: 669-678 (2004). Human erythrocytes were suspended in the solution of saline to obtain a cell density of suspension 2×10^7/ml. Suitable amounts of diluted solutions of compounds were added to the cell suspension in tubes and were incubated at 37° C. for 30 minutes and then centrifuged (1700×g, 10 min, 4° C.). The concentration of hemoglobin in supernatant after centrifugation of erythrocytes suspension were determined by measuring the absorbance at wavelength λ=540 nm (A540). The maximum level of hemolysis was obtained after incubation of cells suspension in the presence of 0.1% Tritone X-100 (control sample). […] From these graphs, the EH50 values were read which are the interpolated concentrations of compound, for which the A540 value is exactly 50% of the A540 value measured for the control sample.

SMILES | WS EH50/IC50 (selectivity coefficient) | WE WS(z)/WS(AmB) (effectivity factor)
C[C@@H]1[C@H](O)[C@@H](C)/C=C/C=C/C=C/C=C/C=C/C=C/C=C/[C@H](O[C@@H]2O[C@H](C)[C@@H](O)[C@H](NCc3ccc(-c4ccccc4)cc3)[C@@H]2O)C[C@@H]2O[C@](O)(C[C@@H](O)C[C@@H](O)[C@H](O)CC[C@@H](O)C[C@@H](O)CC(=O)O[C@H]1C)C[C@H](O)[C@H]2C(=O)O [Compound A20, N-[(4-biphenyl)methyl]amphotericin B] | >61.35 | >3.45
C[C@@H]1[C@H](O)[C@@H](C)/C=C/C=C/C=C/C=C/C=C/C=C/C=C/[C@H](O[C@@H]2O[C@H](C)[C@@H](O)[C@H](NC(=O)[C@@H](N)Cc3ccc([N+](=O)[O-])cc3)[C@@H]2O)C[C@@H]2O[C@](O)(C[C@@H](O)C[C@@H](O)[C@H](O)CC[C@@H](O)C[C@@H](O)CC(=O)O[C@H]1C)C[C@H](O)[C@H]2C(=O)O [Compound A33, N-L-p-nitrophenylalanylamphotericin B] | >71.94 | >4.05
C[C@@H]1[C@H](O)[C@@H](C)/C=C/C=C/C=C/C=C/C=C/C=C/C=C/[C@H](O[C@@H]2O[C@H](C)[C@@H](O)[C@H](NC(=O)[C@H](N)COC(C)(C)C)[C@@H]2O)C[C@@H]2O[C@](O)(C[C@@H](O)C[C@@H](O)[C@H](O)CC[C@@H](O)C[C@@H](O)CC(=O)O[C@H]1C)C[C@H](O)[C@H]2C(=O)O [Compound A40, N-D-(O-tert-butyl)serylamphotericin B] | >148.15 | >8.34
C[C@@H]1[C@H](O)[C@@H](C)/C=C/C=C/C=C/C=C/C=C/C=C/C=C/[C@H](O[C@@H]2O[C@H](C)[C@@H](O)[C@H](NC(=O)[C@H](N)c3ccccc3)[C@@H]2O)C[C@@H]2O[C@](O)(C[C@@H](O)C[C@@H](O)[C@H](O)CC[C@@H](O)C[C@@H](O)CC(=O)O[C@H]1C)C[C@H](O)[C@H]2C(=O)O [Compound A41, N-D-phenylglycylamphotericin B] | >68.49 | >3.86
C[C@@H]1[C@H](O)[C@@H](C)/C=C/C=C/C=C/C=C/C=C/C=C/C=C/[C@H](O[C@@H]2O[C@H](C)[C@@H](O)[C@H](NC(=O)[C@@H](N)Cc3ccccc3)[C@@H]2O)C[C@@H]2O[C@](O)(C[C@@H](O)C[C@@H](O)[C@H](O)CC[C@@H](O)C[C@@H](O)CC(=O)O[C@H]1C)C[C@H](O)[C@H]2C(=O)O [Compound A30, N-L-phenylalanylamphotericin B] | >111.11 | >6.26
C[C@@H]1[C@H](O)[C@@H](C)/C=C/C=C/C=C/C=C/C=C/C=C/C=C/[C@H](O[C@@H]2O[C@H](C)[C@@H](O)[C@H](NC(=O)[C@H](N)Cc3cccnc3)[C@@H]2O)C[C@@H]2O[C@](O)(C[C@@H](O)C[C@@H](O)[C@H](O)CC[C@@H](O)C[C@@H](O)CC(=O)O[C@H]1C)C[C@H](O)[C@H]2C(=O)O [Compound A36, N-D-β-(pyridin-3-yl)alanylamphotericin B] |  | >10.62
C[C@@H]1[C@H](O)[C@@H](C)/C=C/C=C/C=C/C=C/C=C/C=C/C=C/[C@H](O[C@@H]2O[C@H](C)[C@@H](O)[C@H](NC(=S)NCCN3CCCCC3)[C@@H]2O)C[C@@H]2O[C@](O)(C[C@@H](O)C[C@@H](O)[C@H](O)CC[C@@H](O)C[C@@H](O)CC(=O)O[C@H]1C)C[C@H](O)[C@H]2C(=O)O [Compound A22, N-{[3-(2-piperidin-1-yl)ethyl]thioureidyl}amphotericin B] | >140.84 | >7.93
